Measurements taken from publication PMC3140584, “Structure–function relationships of the competence lipoprotein ComL and SSB in meningococcal transformation”.
No constants are given. Whether binding was seen depends on the method and setting. Some entries that bind do so weakly or less than the wild type.

The chains behind the UniProt entries cited, without tags or fusion partners. Residues count along the entry.
UniProt Q70M91, residues 25-354: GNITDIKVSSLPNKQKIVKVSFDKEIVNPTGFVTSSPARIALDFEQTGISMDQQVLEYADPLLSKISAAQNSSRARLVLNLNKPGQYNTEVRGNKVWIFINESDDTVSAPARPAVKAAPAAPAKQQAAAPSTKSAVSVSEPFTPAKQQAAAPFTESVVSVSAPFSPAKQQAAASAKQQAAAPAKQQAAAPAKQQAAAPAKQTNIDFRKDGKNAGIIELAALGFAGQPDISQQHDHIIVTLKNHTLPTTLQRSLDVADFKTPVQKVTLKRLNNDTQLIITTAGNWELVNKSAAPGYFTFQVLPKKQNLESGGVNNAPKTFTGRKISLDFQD
UniProt Q9K0B1, residues 18-267: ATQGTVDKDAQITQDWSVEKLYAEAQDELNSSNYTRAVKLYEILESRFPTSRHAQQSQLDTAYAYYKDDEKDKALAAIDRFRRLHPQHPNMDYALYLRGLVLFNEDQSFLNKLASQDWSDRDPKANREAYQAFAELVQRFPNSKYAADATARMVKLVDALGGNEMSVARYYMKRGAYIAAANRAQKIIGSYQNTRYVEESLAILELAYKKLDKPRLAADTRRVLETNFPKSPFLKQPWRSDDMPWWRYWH

Target: PilQ_(25–354) (Neisseria meningitidis) (UniProt Q70M91)
Assay: far-Western, overlay or dot blot; 1 µg PilQ_(25–354) separated by SDS-PAGE, blotted on nitrocellulose, renatured overnight at 4 °C (0.25 % gelatin, 0.5 % BSA, 0.2 % Triton X-100, 10 mM Tris/HCl, 5 mM β-mercaptoethanol, 100 mM NaCl, pH 7.5); overlay for 3 h with 1 µg ComL_(18–267) in 10 ml renaturation buffer; bound ComL detected with rabbit antiserum against ComL; both purified

For “ComL_(18–267) (from UniProt Q9K0B1 18-267) (domain or fragment)”, the binding was “binds”.
